Measurements as given in PMC12752627, “Discovery of a Potent and Selective TEAD Degrader with Durable Degradation Activity” (Advanced Science, 2025).
This continues a long series; more values of the same kind are listed elsewhere.

System: 867 cancer cell lines
Test: PRISM assay (barcoded cell line screening, 5 days);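 also: top test concentration 10 mM in eight-point dilution series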
Format: cell-based
Design: scale not given here
Protocol: The principle of the PRISM assay has been described elsewhere and was conducted as previously outlined by the PRISM team at the Broad Institute.^[ [14], [31] ^] In PRISM (MTS027) experiments, KG‐FP‐003 was tested across 867 different cancer cell lines. Cells were treated with eight concentration gradients, ranging from 4.6 nM to […], in triplicate dilutions over a period of five days. Each plate was treated with 20 µM bortezomib as a positive control and DMSO as a negative control. Three replicate experiments were performed for each compound. The resulting data were analyzed using GraphPad PRISM 9.5.

CNC(=O)c1cc2c(c(F)c1-c1c(Cl)c(F)cc3c1C[C@@](CN[C@H]1CC[C@H](C(=O)N4CCC(CC5CCN(C(=O)COc6ccc(N7CCC(=O)NC7=O)c(C)c6)CC5)CC4)CC1)(c1ccccc1)O3)[C@@H](O)[C@@H](C)C2 [KG-FP-003]
KG-FP-003-AUC (LC1SQSF_LUNG, PR500): 1.00 | KG-FP-003-AUC (LCLC103H_LUNG, PR500): 0.80 | KG-FP-003-AUC (LI7_LIVER, PR500): 1.00 | KG-FP-003-AUC (LK2_LUNG, PR500): 0.99 | KG-FP-003-AUC (LMSU_STOMACH, PR500): 0.98 | KG-FP-003-AUC (LN18_CENTRAL_NERVOUS_SYSTEM, PR500): 0.93 | KG-FP-003-AUC (LN229_CENTRAL_NERVOUS_SYSTEM, PR500): 1.00 | KG-FP-003-AUC (LN382_CENTRAL_NERVOUS_SYSTEM, PR300): 1.00 | KG-FP-003-AUC (LN464_CENTRAL_NERVOUS_SYSTEM, PR300): 0.98 | KG-FP-003-AUC (LNCAPCLONEFGC_PROSTATE, PR500): 0.99 | KG-FP-003-AUC (LNZ308_CENTRAL_NERVOUS_SYSTEM, PR300): 0.83 | KG-FP-003-AUC (LOUNH91_LUNG, PR500): 0.97 | KG-FP-003-AUC (LOVO_LARGE_INTESTINE, PR500): 1.00 | KG-FP-003-AUC (LOXIMVI_SKIN, PR500): 0.84 | KG-FP-003-AUC (LPS141_SOFT_TISSUE, PR300): 1.00 | KG-FP-003-AUC (LS180_LARGE_INTESTINE, PR500): 0.99 | KG-FP-003-AUC (LS411N_LARGE_INTESTINE, PR500): 0.99 | KG-FP-003-AUC (LS513_LARGE_INTESTINE, PR500): 1.00 | KG-FP-003-AUC (LS1034_LARGE_INTESTINE, PR500): 0.93 | KG-FP-003-AUC (LS_AUTONOMIC_GANGLIA, PR300): 0.98 | KG-FP-003-AUC (LU99_LUNG, PR500): 0.89 | KG-FP-003-AUC (LUDLU1_LUNG, PR500): 1.00 | KG-FP-003-AUC (LXF289_LUNG, PR500): 0.44 | KG-FP-003-AUC (M059K_CENTRAL_NERVOUS_SYSTEM, PR300): 0.56 | KG-FP-003-AUC (MALME3M_SKIN, PR500): 0.93 | KG-FP-003-AUC (MB1_THYROID, PR300): 0.75 | KG-FP-003-AUC (MC116_HAEMATOPOIETIC_AND_LYMPHOID_TISSUE, PR300): 0.91 | KG-FP-003-AUC (MCAS_OVARY, PR500): 0.60 | KG-FP-003-AUC (MCC26_SKIN, PR300): 0.91 | KG-FP-003-AUC (MCC142_SKIN, PR300): 0.75 | KG-FP-003-AUC (MCF7_BREAST, PR500): 0.97 | KG-FP-003-AUC (MDAMB175VII_BREAST, PR500): 1.00 | KG-FP-003-AUC (MDAMB231_BREAST, PR500): 0.66 | KG-FP-003-AUC (MDAMB361_BREAST, PR300): 0.99 | KG-FP-003-AUC (MDAMB435S_SKIN, PR500): 0.92 | KG-FP-003-AUC (MDAMB436_BREAST, PR500): 0.91 | KG-FP-003-AUC (MDAMB453_BREAST, PR300): 0.97 | KG-FP-003-AUC (MDAMB468_BREAST, PR500): 0.75 | KG-FP-003-AUC (MDAPCA2B_PROSTATE, PR300): 0.89 | KG-FP-003-AUC (MEG01_HAEMATOPOIETIC_AND_LYMPHOID_TISSUE, PR300): 1.00 | KG-FP-003-AUC (MEL285_UVEA, PR300): 0.58 | KG-FP-003-AUC (MEL290_UVEA, PR300): 0.49 | KG-FP-003-AUC (MELHO_SKIN, PR500): 0.99 | KG-FP-003-AUC (MELJUSO_SKIN, PR500): 0.98 | KG-FP-003-AUC (MESSA_SOFT_TISSUE, PR500): 0.80 | KG-FP-003-AUC (MEWO_SKIN, PR500): 1.00 | KG-FP-003-AUC (MFE280_ENDOMETRIUM, PR500): 0.92 | KG-FP-003-AUC (MFE296_ENDOMETRIUM, PR500): 1.00 | KG-FP-003-AUC (MFE319_ENDOMETRIUM, PR500): 0.44 | KG-FP-003-AUC (MG63_BONE, PR300): 1.00 | KG-FP-003-AUC (MG63_BONE, PR500): 1.00 | KG-FP-003-AUC (MHHES1_BONE, PR300): 0.99 | KG-FP-003-AUC (MHHES1_BONE, PR500): 0.98 | KG-FP-003-AUC (MHHNB11_AUTONOMIC_GANGLIA, PR300): 1.00 | KG-FP-003-AUC (MIAPACA2_PANCREAS, PR500): 0.99 | KG-FP-003-AUC (MKN1_STOMACH, PR500): 0.77 | KG-FP-003-AUC (MKN7_STOMACH, PR500): 0.74 | KG-FP-003-AUC (MKN45_STOMACH, PR500): 0.89 | KG-FP-003-AUC (MKN74_STOMACH, PR500): 0.74 | KG-FP-003-AUC (MM1S_HAEMATOPOIETIC_AND_LYMPHOID_TISSUE, PR300): 0.92 | KG-FP-003-AUC (MM127_SKIN, PR300): 0.74 | KG-FP-003-AUC (MMNK1_BILIARY_TRACT, PR300): 0.57 | KG-FP-003-AUC (MOLM13_HAEMATOPOIETIC_AND_LYMPHOID_TISSUE, PR300): 0.88 | KG-FP-003-AUC (MOLM14_HAEMATOPOIETIC_AND_LYMPHOID_TISSUE, PR300): 0.98 | KG-FP-003-AUC (MOLP2_HAEMATOPOIETIC_AND_LYMPHOID_TISSUE, PR300): 0.98 | KG-FP-003-AUC (MOLT3_HAEMATOPOIETIC_AND_LYMPHOID_TISSUE, PR300): 0.92 | KG-FP-003-AUC (MOLT16_HAEMATOPOIETIC_AND_LYMPHOID_TISSUE, PR300): 0.75 | KG-FP-003-AUC (MONOMAC1_HAEMATOPOIETIC_AND_LYMPHOID_TISSUE, PR300): 0.82 | KG-FP-003-AUC (MONOMAC6_HAEMATOPOIETIC_AND_LYMPHOID_TISSUE, PR300): 0.91 | KG-FP-003-AUC (MON_SOFT_TISSUE, PR300): 0.53 | KG-FP-003-AUC (MON_SOFT_TISSUE, PR500): 1.00 | KG-FP-003-AUC (MP41_UVEA, PR300): 1.00 | KG-FP-003-AUC (MPP89_PLEURA, PR500): 0.77 | KG-FP-003-AUC (MS751_CERVIX, PR300): 0.98 | KG-FP-003-AUC (MSTO211H_PLEURA, PR500): 0.57 | KG-FP-003-AUC (NALM6_HAEMATOPOIETIC_AND_LYMPHOID_TISSUE, PR300): 0.75 | KG-FP-003-AUC (NB1_AUTONOMIC_GANGLIA, PR300): 0.99 | KG-FP-003-AUC (NB1_AUTONOMIC_GANGLIA, PR500): 0.99 | KG-FP-003-AUC (NB4_HAEMATOPOIETIC_AND_LYMPHOID_TISSUE, PR300): 0.79 | KG-FP-003-AUC (NCIH23_LUNG, PR500): 0.88 | KG-FP-003-AUC (NCIH28_PLEURA, PR500): 0.60 | KG-FP-003-AUC (NCIH157DM_LUNG, PR500): 0.99 | KG-FP-003-AUC (NCIH196_LUNG, PR300): 0.97 | KG-FP-003-AUC (NCIH226_LUNG, PR500): 0.46 | KG-FP-003-AUC (NCIH292_LUNG, PR500): 0.65 | KG-FP-003-AUC (NCIH322_LUNG, PR500): 0.97 | KG-FP-003-AUC (NCIH358_LUNG, PR500): 0.79 | KG-FP-003-AUC (NCIH441_LUNG, PR300): 0.98 | KG-FP-003-AUC (NCIH446_LUNG, PR500): 0.81 | KG-FP-003-AUC (NCIH460_LUNG, PR500): 0.99 | KG-FP-003-AUC (NCIH520_LUNG, PR500): 1.00 | KG-FP-003-AUC (NCIH522_LUNG, PR500): 0.84 | KG-FP-003-AUC (NCIH524_LUNG, PR300): 0.91 | KG-FP-003-AUC (NCIH596_LUNG, PR500): 0.93 | KG-FP-003-AUC (NCIH647_LUNG, PR300): 1.00 | KG-FP-003-AUC (NCIH650_LUNG, PR500): 0.98
